Tested on: 20S standard proteasomes
Assay: In vitro digestion of synthetic KRAS2−35 polypeptides by 20S proteasomes, MS detection of peptide products
Format: biochemical
Settings: for Generation by 20S proteasomes from synthetic KRAS2−35 polypeptide: 40 μM polypeptide, 3 μg 20S proteasomes, 100 μl TEAD buffer, 37°C, 20 h, targeted MS

[KL][VVGAGGV] [KRAS5−6/8−14 G12]
Generation by 20S proteasomes from synthetic KRAS2−35 polypeptide: not produced by 20S proteasomes

[KL][VVGAVGV] [KRAS5−6/8−14 G12V]
Generation by 20S proteasomes from synthetic KRAS2−35 polypeptide: is generated by proteasomes | Amount produced in digestion kinetics (KRAS2−35 G12V polypeptide, 20S proteasomes, 0–4 h kinetics, quantified by titration of synthetic peptides): produced in amounts smaller than the average amount of spliced peptides

— PMC6872521, “An in silico—in vitro Pipeline Identifying an HLA-A^*02:01^+ KRAS G12V^+ Spliced Epitope Candidate for a Broad Tumor-Immune Response in Cancer Patients” (Frontiers in Immunology, 2019)
